# The name of at least one read-out is uncertain.
# Assay: behavioural study in rats: anxiety induced by a new environment (rearings and movements)
# Format: in vivo, male Sprague-Dawley rats
# Conditions: movements to rearings gradient
# From the text: The xanthines obtained in accordance with the preceding Examples were the subject of a behavioural study in rats as a function of the anxiety induced by a new environment. In rats, anxiety is manifested by rearing the animal on its two hind paws, whilst locomotive activity is expressed by their movements.
# A state of anxiety is induced by confronting "naive" male Sprague-Dawley (Iffa-Credo, France) rats weighing from 260 to 300 g with a new environment in the form of cages of Macrolon (30×25 cm) which are situated in a sound-proofed air-conditioned room (22° C./50% relative humidity).
# The number of rearings and movements is automatically determined by means of infrared photoelectric cells which only emit electrical pulses for the active movements of the animal and not for its static movements, such as those of its head and tail, for reasons of reproducibility. These photoelectric cells scan the cages at two different levels so as to distinguish the standing-up movements from the other movements. The number of rearings and movements is counted by the two rows of photoelectric cells, memorised and read out using a printer in accordance with a pre-established program.
# The tested compound in solution in the form of its sodium salt is orally administered by oesophagus probe (the reference administration being formed by 6 ml/kg of distilled water) 30 minutes before the animals are placed in the cages. The number of rearings and movements is determined during the 15 minutes after they have been put into the cages in relation to the effect generated by the reference administration.
# The ED 50 dose (expressed in mg/kg), i.e. the quantity of substance required to bring about a 50% variation in the motive activity in relation to the reference administration, is determined from the development of the effects of the tested substances on the number of movements and rearings as a function of the progressive doses administered expressed as a percentage of the movements and rearings counted for the reference administration.
# The gradients of the regression curves corresponding to the movements and to the rearings are compared by recording the value of the gradient of the movement curve on the abscissa (d) and the value of the gradient of the rearing curve on the ordinant (r) of a system of rectungular axes.
# The ratio of the gradient of the movements to that of the rearings is also determined, enabling the specificity of effect of a given substance on the anxiety state to be assessed.
# The effect of a substance is determined by its position relative to the curve d=r of gradient=1. The substances situated on this curve have a similar effect on the rearings and movements, being sedatives with a non-specific effect (S.N.). For these compounds, the ED 50 value quoted corresponds to the mean taken from the two regression curves.
# These compounds are sedatives of anxiolytic character (S.A.). In this case, the ED 50 value is calculated from the regression curve of the rearings.
row,SMILES,Ratio of the gradients d/r
1,"C=CCn1c(=O)c2[nH]c(CC)nc2n(CCCC)c1=O [Example 5, 1-allyl-3-butyl-8-ethyl xanthine]",< 1
2,"CCCCn1c(=O)n(CC)c(=O)c2[nH]c(C)nc21 [Example 8, 1-ethyl-3-butyl-8-methyl xanthine]",< 1
3,"CCCCn1c(=O)c2[nH]c(C)nc2n(CCC)c1=O [Example 13, 1-butyl-3-propyl-8-methyl xanthine]",< 1
4,"C=CCn1c(=O)c2[nH]c(C)nc2n(CCC)c1=O [Example 6, 1-allyl-3-propyl-8-methyl xanthine]",< 1
5,"C=CCn1c(=O)c2[nH]cnc2n(CC(C)C)c1=O [Example 3, 1-allyl-3-isobutyl xanthine]",< 1
6,"C=CCn1c(=O)c2[nH]c(C)nc2n(CCC(C)C)c1=O [Example 7, 1-allyl-3-isopentyl-8-methyl xanthine]",< 1
7,"CCCCn1c(=O)n(CC)c(=O)c2[nH]c(CC)nc21 [Example 9, 1,8-diethyl-3-butyl xanthine]",< 1
8,"CCCn1c(=O)c2[nH]c(C)nc2n(CCC)c1=O [Example 14, 1,3-dipropyl-8-methyl xanthine]",< 1
